# This is one part of the list. Further columns of the screen follow, without active or inactive calls. Most of these compounds were active or inconclusive in the main read-out, so they are no random draw. The note in brackets gives the kind of curve behind each potency; many fits are weak.
# Assay: qHTS Assay for Lipid Storage Modulators in Drosophila S3 Cells;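 as to cell number change: cells counted by Cell Tracker Red CMTPX staining in the red channel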
# Conditions: BODIPY lipid droplet fluorescence, 18-24 h; for cell number change: measured here: cell count max response, cells fed with added oleic acid
# In short: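 Drosophila S3 cells got compounds at several concentrations plus oleic acid (400 uM solution). Laser-scanning cytometry with 488 nm excitation read lipid droplets at 500-530 nm and cells at 575-640 nm. Percent activity was relative to 20 uM Triacsin C.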
# [1] = measured here: lipid fluorescence (Fed channel) AC50, cells fed with added oleic acid
# [2] = measured here: cell number channel AC50, cells fed with added oleic acid
SMILES,cell number change [%],AC50 [1],AC50 [2]
O=C(CN1CCCC1)NCC(=O)Nc1ccc(F)cc1,-0.34,"6.51 µM [falling, single point]",
CCOC(=O)C(NC(=O)c1ccc(Cl)cc1Cl)(Nc1ccc(C)cc1)C(F)(F)F (configuration not stated),-30.5,"20.6 µM [falling, partial curve, poor fit]","29.1 µM [falling, single point]"
O=C(NCC(c1ccco1)N1CCCC1)c1cn(-c2ccccc2)nc1-c1ccc(F)cc1 (configuration not stated),-18.6,"0.092 µM [rising, full curve, poor fit]",
COc1ccc(OC)c(C2=NOC(C(=O)NCc3ccco3)C2)c1 (configuration not stated),-3.62,"29.1 µM [rising, single point]",
O=C(O)CCN1CC2([N+](=O)[O-])C=CC(=O)C([N+](=O)[O-])(C1)C2CC(=O)c1ccccc1 (configuration not stated),-0.402,"20.6 µM [rising, partial curve]",
O=C(NCCN1CCOCC1)c1cc(S(=O)(=O)NCCCN2CCCC2=O)ccc1Cl,3.51,"29.1 µM [falling, single point]",
CCOC(=O)c1sc2nc(CSc3ccccc3)nc(N3CCCN(C)CC3)c2c1C,-85.6,"23.1 µM [falling, single point]","18.4 µM [falling, single point]"
Cc1ccc(-c2nn(-c3ccccc3)cc2/C=C(\C#N)c2cccc(C#N)c2)o1,2.11,"0.13 µM [rising, full curve]",
O=C(CSc1ccc(-c2cccs2)nn1)c1cccs1,11.9,"0.0326 µM [rising, full curve, poor fit]","1.16 µM [rising, single point]"
O=C(Oc1ccc(OC(=O)N2CCOCC2)cc1)c1ccccc1,-35.6,,"13 µM [falling, partial curve]"
CC(C)(C)C(=O)Nc1ccc(Oc2ccc3c(c2)C(=O)N(c2ccc(O)cc2)C3=O)cc1,-9.85,,
COC(=O)c1c(C)[nH]c(C(=O)C(C)OC(=O)c2cc(C)oc2C)c1C (configuration not stated),-47.1,"29.1 µM [falling, single point]","29.1 µM [falling, single point]"
CC(=O)Nc1nc(-c2ccccc2)nc(-c2ccccc2OC(C)=O)n1,-30.3,"0.00651 µM [rising, full curve, poor fit]","1.64 µM [falling, partial curve, poor fit]"
Cc1ccccc1OCC(=O)NCCCNC(=O)c1ccco1,5.42,"25.9 µM [rising, single point]",
